The campaign covered roughly 53,000 sequences. About 3,700 (7%) were called active.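 The calls were made as follows: active = gene knockdowns whose robust z-score for IL-1 alpha signal is at least 2 or at most -2, so actives lie on both sides; inactive = the rest.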 This is one part of the list.

The nature of this experiment: Components of the Cytosolic LPS Sensing Pathway: Gene Identification via Genome-wide siRNA Screen.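 Also: robust z of the log signal after scaling to non-targeting control siRNA wells of the plate.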 To be noted: RAW264.7 macrophages, IL-1a HTRF, actives lie on both sides, screened at 100 nM (by protocol), cells primed 5 h with Pam3CSK4 first. In short, it runs like this: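 Read-out: IL-1a HTRF on supernatant, divided by plate negative-control median ×100, log-transformed and converted to robust z-score. Cells were RAW264.7 given 100 nM siRNA, Pam3CSK4-primed 5 hours, then LipidA-transfected 24 hour.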
Regarding GGACAGGAGGAUUACAACCTT against Rhoj, the z-score was inactive: -0.954. Next, GGUUUGAACUUCAGCAACUTT against Adam15: active: -2.17; GGACCCUUUCUUUGAUAUGTT against Rpe: inactive: 1.01; GUAACCUGAUUUCCAUUCUTT against Olfr178: inactive: 0.913.

As for GGACACUAAGGUUCCCAACTT against Polr2j, the z-score is inactive: -0.977. Next, GGUCUCCUUCUGCUUGAAGTT against Prx: inactive: 0.422; CGUCCAGUAUACGCUGGUUTT against Cdc45: active: 5.41; “GGGAUGUGUACCGUUACAUTT against 1700010I14Rik”: inactive: 0.155. Next, GGAAAGUGGAUGUCACCAGTT against Sh3gl2: inactive: -1.67; GCUGAUAAACAUCAGCUACTT against Zdhhc23: active: 4.01. CCCUGAAACCUGAUCGGAATT against Nmral1: the z-score was inactive: -0.0303. For CCACUCCGAAACCAUCAGCTT against Asic2 the value was inactive: 1.09; for GGUCUUUGAUCUUCUACCGTT against Thbs4, inactive: 0.156.

Turning to CCAUGAAACGGGCCAUUUCTT against Cldn3, the z-score was inactive: 0.238.

As to “CCAUGUGGGUAAGUACAGCTT against 4932411N23Rik”, the z-score was inactive: 1.75. For GGCUUCCUGUUGGCAGUCATT against Olfr1413 the value was inactive: -1.24; for GGACCUCAGCGAAGACAAUTT against Cd300e, inactive: 0.114; for GGUAAAAAGCCUUAUCAGUTT against Zfp146, inactive: -0.434. For GGACAUCCAGACUCUGAGATT against Dmac2 the value was inactive: -1.56; for GGUGAUUGUCUUGAUAUCCTT against Olfr1213, inactive: -0.672; for GGAACAAAGAAGUAAUGUATT against Tbk1, inactive: 1.21. For GCAUUCCAACGGAUUUAAUTT against Dag1 the value was active: 2.21; for GGAGAUGGACUCACUGAUGTT against Zscan20, inactive: -1.32; for AAACCAUACUUGAAAGAAATT against Olfr943, inactive: -0.36.

GGAACUGGAAAGGAAUCGCTT against Dpp6: the z-score was inactive: 1.14.

GGCCCUGCCUACUAUCUAUTT against B3gat3: the z-score was inactive: -1.4. In the case of CCUGUACUCUAUAUUCUGUTT against Pld2, the z-score was inactive: 0.98. For GGGCAAGAGAGUAGAACUGTT against Ambra1 the value was inactive: 0.383. Next, CCCAACAUUUCCCUAUGUCTT against Reg3d: inactive: 0.832. Next, GGCAAUUUUGGACAAACAGTT against Amy1: inactive: -1.42.

Source of the values: PubChem BioAssay AID1508600 (Functional Genomics Laboratory (NCATS/FGL), 2020).
